The values below come from article PMC7359353, “Rab27a co-ordinates actin-dependent transport by controlling organelle-associated motors and track assembly proteins” (Nature Communications, 2020).

Results are given in words; binding and its absence hold for the method and conditions named. Binding seen in cells or lysates may run through a third protein. Sequences can lack the tags named with a protein.

For this assay, the target named is T1, GST-Rab27a-Q78L (UniProt P23640 1-221, Q78L).
T1 construct: Rab27a; rat Rab27a is stated only for the BiFC constructs; also called GTP-locked Rab27a-Q78L; active Rab27a-Q78L; source: E. coli Rosetta, purified (GSH-Sepharose 4B, size-exclusion chromatography)
T1 sequence (looked up): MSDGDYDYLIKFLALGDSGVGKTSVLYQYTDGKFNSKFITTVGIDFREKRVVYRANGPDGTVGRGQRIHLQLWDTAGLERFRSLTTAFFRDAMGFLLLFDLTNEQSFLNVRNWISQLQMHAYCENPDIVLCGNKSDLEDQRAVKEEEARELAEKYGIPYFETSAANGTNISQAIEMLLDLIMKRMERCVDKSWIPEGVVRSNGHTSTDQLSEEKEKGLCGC
As to the kind of experiment: pull-down; 50 µg GST-Rab27a (Q78L or T23N) coupled to GSH-Sepharose 4B beads, incubated with HEK293 cell lysates 2 h at 4 °C; 25 mM Tris-HCl pH 7.4, 150 mM NaCl, 5 mM MgCl2, 10% glycerol, 0.1% Nonidet P-40; bound proteins analysed by immunoblotting (anti-c-Myc, anti-GFP); only the target purified. In general terms: Immunoblotting shows a protein as a band on a membrane.

For SPIRE1 E548K (from UniProt Q08AE8-2), the binding entry is given as “no binding”. The result for SPIRE1 E548A (from UniProt Q08AE8-2) reads “no binding”.
